# Test results: PubChem BioAssay AID2685 (National Center for Advancing Translational Sciences (NCATS), 2010)
# This is one part of the list. These are further read-outs of the screen, such as a control signal, another cell line or another target. No call is given for them. Most of these compounds were active or inconclusive in the main read-out, so they are no random draw. Words in brackets tell the shape of the fitted curve; partial curves, single points and poor fits give uncertain potencies.
# Test: qHTS Assay for Lipid Storage Modulators in Drosophila S3 Cells;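 for cell number change: cells counted by Cell Tracker Red CMTPX staining in the red channel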
# Settings: BODIPY lipid droplet fluorescence, 18-24 h; for cell number change: measured here: cell count max response, cells fed with added oleic acid
# In short: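 Laser-scanning cytometry quantifies lipid droplet accumulation (500–530 nm total intensity; droplet/cell object ratio) in oleic acid-fed (400 uM added) Drosophila S3 cells treated with a concentration series. 20 uM Triacsin C defined 100% inhibition.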
# [1] = measured here: lipid fluorescence (Fed channel) AC50, cells fed with added oleic acid
# [2] = measured here: cell number channel AC50, cells fed with added oleic acid
SMILES,cell number change,AC50 [1],AC50 [2]
Cc1ccc(C2=NC(C(F)(F)F)(C(F)(F)F)c3c(n(-c4ccc(F)cc4)c(=O)[nH]c3=O)N2)cc1,-16.7%,"32.6 µM [falling, single point]",–
O=C1CC(c2ccc(Cl)cc2)c2c(O)cc(O)cc2O1 (configuration not stated),-10%,"0.0517 µM [rising, full curve, poor fit]",–
Cc1c(C(=O)NNC(=O)c2ccncc2)oc2ccccc12,22.4%,"9.2 µM [rising, partial curve, poor fit]",–
CCN(Cc1cc2ccccc2[nH]c1=O)C(=O)C(C)C,1.51%,"6.51 µM [rising, single point]",–
COc1ccc(OC)c(C(=O)c2coc3ccc(O)c(CN4CCOCC4)c23)c1,–,"0.58 µM [falling, full curve]",–
CCCS(=O)(=O)N1CCCC(C(=O)NCc2ccco2)C1 (configuration not stated),11.8%,–,–
CC(=O)N1N=C(c2ccncc2)OC12CCCCC2,16.8%,"18.4 µM [rising, single point]",–
CN(CC(=O)N1CCN(c2ccccc2)CC1)C1CCCc2ccccc21 (configuration not stated),26.6%,–,–
O=C(CN1CCN(c2ccccc2F)CC1)c1ccc2c(c1)OCO2,6.13%,"2.59 µM [rising, full curve]",–
O=c1cc(O)c(-c2cccc(C(F)(F)F)c2)c(Cl)[nH]1,–,–,"0.116 µM [falling, full curve, poor fit]"
COc1ccc(-c2nnc(SCC#CCO)o2)cc1OC,18.6%,"2.06 µM [rising, partial curve]","2.06 µM [rising, partial curve]"
C=CCN(C(=O)CCS(=O)(=O)c1cccc2nsnc12)c1ccccc1,-5.42%,"5.8 µM [falling, partial curve]",–
CC(=O)N1CCC2(CC1)C/C(=N\NC(=S)Nc1ccc(C)cc1)c1cc(O)ccc1O2,41.8%,"0.517 µM [rising, full curve]",–
Cc1cccc(CC(=O)N2CCN(C(=O)c3ccco3)CC2)c1,0.829%,–,–
NC(=O)c1ccc(NC(=O)CSc2nnc(-c3ccncc3)n2Cc2ccco2)cc1,–,"20.6 µM [falling, partial curve, poor fit]",–
O=C(N/N=C/c1nn(-c2ccccc2)cc1-c1ccccc1)c1ccncc1,2.3%,"7.31 µM [rising, partial curve]","0.116 µM [falling, full curve, poor fit]"

# Record cards, from the list above. Values in the order: cell number change	AC50 [1]	AC50 [2]
# `CCN(Cc1cc2ccccc2[nH]c1=O)C(=O)C(C)C` reads 1.51%	6.51 µM [rising, single point]	–
# `O=C(CN1CCN(c2ccccc2F)CC1)c1ccc2c(c1)OCO2` reads 6.13%	2.59 µM [rising, full curve]	–

# (further entries)

SMILES,cell number change,AC50 [1],AC50 [2]
CC(=O)c1ccc(N2CCN(CN3C(=O)CC4(CCCC4)C3=O)CC2)c(F)c1,3.6%,–,–
CCc1nc(Nc2cccc(F)c2)c2oc3ccccc3c2n1,20.3%,"2.06 µM [rising, single point]",–
Cc1ccc(S(=O)(=O)N2CCN(CC(=O)NC3CCCc4ccccc43)CC2)c(C)c1 (configuration not stated),38.3%,"6.51 µM [falling, single point]","29.1 µM [rising, single point]"
CC1CCCCC1NC(=O)c1nn(C)c2c1CS(=O)(=O)c1ccccc1-2 (configuration not stated),7.16%,"29.1 µM [falling, single point]",–
O=c1c2ccccc2nc(-c2ccccc2)n1Cc1ccc(Cl)cc1,20.9%,"2.31 µM [rising, full curve]",–
CCc1[nH]nc(C(=O)N/N=C/c2ccncc2)c1C,17.3%,"29.1 µM [rising, single point]",–
CCOc1ccc(C(=O)CC(NCc2cccs2)C(=O)O)cc1 (configuration not stated),-2.58%,"0.0058 µM [falling, full curve, poor fit]",–
CN(C)S(=O)(=O)Oc1ccccc1C(=O)Nc1ccc(F)cc1,-14%,"0.259 µM [falling, full curve, poor fit]",–
O=C(CCl)N(CCc1ccccc1)CCc1ccccc1,13.2%,–,–
O=C(NCCc1ccccc1)C1CCN(S(=O)(=O)N2CCC3(CC2)OCCO3)CC1,52.2%,–,"1.16 µM [rising, full curve]"
COc1cccc(NC(=O)CN(C)S(=O)(=O)c2ccc3c(c2)NC(=O)CS3)c1,-31.2%,–,"32.6 µM [falling, single point]"
Cc1nc2cncc(Br)c2n1C,13.1%,"20.6 µM [rising, single point]",–
CCOC1CCCCC1NS(=O)(=O)c1ccc(Cl)cc1 (configuration not stated),-3.2%,"4.61 µM [falling, partial curve]",–
COC(=O)c1ccccc1OCC(=O)N1CCN(c2ccc(Cl)cc2)CC1,12.6%,–,–
Cn1cnnc1SCCC(=O)Nc1ccccc1,0.356%,–,–
COc1ccc(OCC(O)Cn2c(Nc3ccccc3)nc3c2c(=O)n(C)c(=O)n3C)cc1 (configuration not stated),-32.1%,–,"16.4 µM [falling, partial curve]"
